Experimental data as given in patent publication US8378104B2 (OSI Pharmaceuticals, LLC, priority 2010, dated 2013).
Structures were worked out from names or drawings and are uncertain.

Chains of the proteins cited; added tags and fusions are not shown. A line that says so, or that is headed by a name, gives the form on record, which may keep a tag or linker. Residues count along the entry.
UniProt O43318, 1-303 with tags or gaps limits assumed: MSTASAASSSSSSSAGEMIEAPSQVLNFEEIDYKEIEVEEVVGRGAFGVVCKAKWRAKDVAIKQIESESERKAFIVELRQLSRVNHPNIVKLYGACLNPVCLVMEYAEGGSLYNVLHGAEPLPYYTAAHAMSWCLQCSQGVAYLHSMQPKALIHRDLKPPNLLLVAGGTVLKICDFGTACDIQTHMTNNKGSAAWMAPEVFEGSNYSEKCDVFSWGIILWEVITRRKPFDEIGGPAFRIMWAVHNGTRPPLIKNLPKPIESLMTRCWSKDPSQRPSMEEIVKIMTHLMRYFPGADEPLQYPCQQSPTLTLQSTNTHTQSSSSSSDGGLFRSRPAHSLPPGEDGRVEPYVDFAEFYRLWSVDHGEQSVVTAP

Target: TAK1-TAB1 fusion protein (Homo sapiens, UniProt O43318)
Test: TAK1 biochemical assay (AlphaScreen, GST-MAP2K7 substrate)
Conditions: read-out: mean TAK1 IC50 (Col. A)

Compound | IC50 [µM]
Nc1ncc(-c2cnn(C3CCNCC3)c2)c2cc(-c3cccc4c3Oc3ccccc3S4)oc12 | 0.1 to 1
CC(=O)N1CCC(n2cc(-c3cnc(N)c4oc(-c5ccc6[nH]c(C(N)=O)cc6c5)cc34)cn2)CC1 | 0.1 to 1
CC(C)(C)[Si](C)(C)OC1CCC(n2cc(-c3cnc(N)c4oc(-c5cccc6cnccc56)cc34)cn2)CC1 (stereo not drawn) | > 10
